According to the supplement of paper PMC10849652:
This is one part of the list.

Chains of the proteins cited; added tags and fusions are not shown. Lines headed by an entry give the natural chain unless they say otherwise; changes in a name come on top.
UniProt Q9NUP7: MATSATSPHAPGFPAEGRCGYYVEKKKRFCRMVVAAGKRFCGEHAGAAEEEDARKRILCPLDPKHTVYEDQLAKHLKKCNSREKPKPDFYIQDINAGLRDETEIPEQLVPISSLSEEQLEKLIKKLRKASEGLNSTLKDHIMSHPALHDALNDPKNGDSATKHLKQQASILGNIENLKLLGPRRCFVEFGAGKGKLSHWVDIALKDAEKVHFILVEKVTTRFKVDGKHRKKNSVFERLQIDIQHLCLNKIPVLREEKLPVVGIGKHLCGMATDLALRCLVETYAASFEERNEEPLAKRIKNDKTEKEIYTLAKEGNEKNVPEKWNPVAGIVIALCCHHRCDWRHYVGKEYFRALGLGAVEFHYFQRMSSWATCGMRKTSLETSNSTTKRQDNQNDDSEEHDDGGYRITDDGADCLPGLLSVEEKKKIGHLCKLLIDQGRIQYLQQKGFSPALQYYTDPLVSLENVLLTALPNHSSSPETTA
UniProt Q5JTV8: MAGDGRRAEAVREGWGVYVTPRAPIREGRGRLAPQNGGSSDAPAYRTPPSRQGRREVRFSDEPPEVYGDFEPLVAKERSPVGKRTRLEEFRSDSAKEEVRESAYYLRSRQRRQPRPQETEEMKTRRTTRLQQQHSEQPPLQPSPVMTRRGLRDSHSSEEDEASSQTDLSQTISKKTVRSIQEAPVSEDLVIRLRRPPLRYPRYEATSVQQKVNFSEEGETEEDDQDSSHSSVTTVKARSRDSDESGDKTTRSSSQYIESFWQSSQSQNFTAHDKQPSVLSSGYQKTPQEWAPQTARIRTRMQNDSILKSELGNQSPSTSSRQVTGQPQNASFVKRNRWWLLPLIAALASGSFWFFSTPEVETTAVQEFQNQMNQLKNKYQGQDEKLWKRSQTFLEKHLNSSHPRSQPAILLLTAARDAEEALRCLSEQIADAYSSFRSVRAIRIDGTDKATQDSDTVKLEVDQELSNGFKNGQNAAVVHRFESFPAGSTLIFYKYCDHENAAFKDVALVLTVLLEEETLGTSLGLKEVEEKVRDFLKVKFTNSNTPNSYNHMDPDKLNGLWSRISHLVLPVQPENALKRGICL
UniProt Q8WW01: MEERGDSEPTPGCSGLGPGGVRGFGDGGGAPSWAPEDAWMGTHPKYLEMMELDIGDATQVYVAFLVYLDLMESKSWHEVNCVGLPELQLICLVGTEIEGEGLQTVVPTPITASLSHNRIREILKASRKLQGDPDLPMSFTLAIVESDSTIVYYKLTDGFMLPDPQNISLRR
UniProt Q96S44: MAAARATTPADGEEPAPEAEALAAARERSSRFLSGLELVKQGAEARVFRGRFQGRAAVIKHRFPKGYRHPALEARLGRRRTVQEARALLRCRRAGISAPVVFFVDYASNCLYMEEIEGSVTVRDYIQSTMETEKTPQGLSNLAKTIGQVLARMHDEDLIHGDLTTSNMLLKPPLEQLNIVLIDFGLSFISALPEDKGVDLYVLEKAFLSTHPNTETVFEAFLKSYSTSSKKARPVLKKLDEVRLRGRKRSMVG
UniProt Q8NFQ8: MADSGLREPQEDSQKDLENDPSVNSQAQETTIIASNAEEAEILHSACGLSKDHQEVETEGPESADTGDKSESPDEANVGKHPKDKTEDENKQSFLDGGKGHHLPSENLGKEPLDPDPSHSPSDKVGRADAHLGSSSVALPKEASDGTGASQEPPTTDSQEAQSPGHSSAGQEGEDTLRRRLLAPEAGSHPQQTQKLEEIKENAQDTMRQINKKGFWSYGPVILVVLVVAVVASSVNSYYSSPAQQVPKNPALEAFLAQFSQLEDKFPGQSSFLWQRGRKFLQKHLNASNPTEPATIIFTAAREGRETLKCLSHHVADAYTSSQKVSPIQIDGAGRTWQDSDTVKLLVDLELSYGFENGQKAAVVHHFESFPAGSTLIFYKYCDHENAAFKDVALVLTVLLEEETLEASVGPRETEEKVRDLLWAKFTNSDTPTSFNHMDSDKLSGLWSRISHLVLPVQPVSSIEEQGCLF
UniProt Q15645: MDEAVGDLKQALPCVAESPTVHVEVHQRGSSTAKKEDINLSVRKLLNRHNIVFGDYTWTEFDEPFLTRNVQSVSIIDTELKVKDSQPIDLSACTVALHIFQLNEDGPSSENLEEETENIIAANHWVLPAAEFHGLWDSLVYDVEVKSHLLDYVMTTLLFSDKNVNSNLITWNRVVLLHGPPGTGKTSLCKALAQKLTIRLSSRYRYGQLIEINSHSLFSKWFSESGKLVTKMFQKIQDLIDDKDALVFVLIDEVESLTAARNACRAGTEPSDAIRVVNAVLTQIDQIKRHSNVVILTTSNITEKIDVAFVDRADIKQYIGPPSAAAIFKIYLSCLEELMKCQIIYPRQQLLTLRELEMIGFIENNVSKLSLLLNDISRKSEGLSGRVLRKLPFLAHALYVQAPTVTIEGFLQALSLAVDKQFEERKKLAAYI
UniProt Q15643: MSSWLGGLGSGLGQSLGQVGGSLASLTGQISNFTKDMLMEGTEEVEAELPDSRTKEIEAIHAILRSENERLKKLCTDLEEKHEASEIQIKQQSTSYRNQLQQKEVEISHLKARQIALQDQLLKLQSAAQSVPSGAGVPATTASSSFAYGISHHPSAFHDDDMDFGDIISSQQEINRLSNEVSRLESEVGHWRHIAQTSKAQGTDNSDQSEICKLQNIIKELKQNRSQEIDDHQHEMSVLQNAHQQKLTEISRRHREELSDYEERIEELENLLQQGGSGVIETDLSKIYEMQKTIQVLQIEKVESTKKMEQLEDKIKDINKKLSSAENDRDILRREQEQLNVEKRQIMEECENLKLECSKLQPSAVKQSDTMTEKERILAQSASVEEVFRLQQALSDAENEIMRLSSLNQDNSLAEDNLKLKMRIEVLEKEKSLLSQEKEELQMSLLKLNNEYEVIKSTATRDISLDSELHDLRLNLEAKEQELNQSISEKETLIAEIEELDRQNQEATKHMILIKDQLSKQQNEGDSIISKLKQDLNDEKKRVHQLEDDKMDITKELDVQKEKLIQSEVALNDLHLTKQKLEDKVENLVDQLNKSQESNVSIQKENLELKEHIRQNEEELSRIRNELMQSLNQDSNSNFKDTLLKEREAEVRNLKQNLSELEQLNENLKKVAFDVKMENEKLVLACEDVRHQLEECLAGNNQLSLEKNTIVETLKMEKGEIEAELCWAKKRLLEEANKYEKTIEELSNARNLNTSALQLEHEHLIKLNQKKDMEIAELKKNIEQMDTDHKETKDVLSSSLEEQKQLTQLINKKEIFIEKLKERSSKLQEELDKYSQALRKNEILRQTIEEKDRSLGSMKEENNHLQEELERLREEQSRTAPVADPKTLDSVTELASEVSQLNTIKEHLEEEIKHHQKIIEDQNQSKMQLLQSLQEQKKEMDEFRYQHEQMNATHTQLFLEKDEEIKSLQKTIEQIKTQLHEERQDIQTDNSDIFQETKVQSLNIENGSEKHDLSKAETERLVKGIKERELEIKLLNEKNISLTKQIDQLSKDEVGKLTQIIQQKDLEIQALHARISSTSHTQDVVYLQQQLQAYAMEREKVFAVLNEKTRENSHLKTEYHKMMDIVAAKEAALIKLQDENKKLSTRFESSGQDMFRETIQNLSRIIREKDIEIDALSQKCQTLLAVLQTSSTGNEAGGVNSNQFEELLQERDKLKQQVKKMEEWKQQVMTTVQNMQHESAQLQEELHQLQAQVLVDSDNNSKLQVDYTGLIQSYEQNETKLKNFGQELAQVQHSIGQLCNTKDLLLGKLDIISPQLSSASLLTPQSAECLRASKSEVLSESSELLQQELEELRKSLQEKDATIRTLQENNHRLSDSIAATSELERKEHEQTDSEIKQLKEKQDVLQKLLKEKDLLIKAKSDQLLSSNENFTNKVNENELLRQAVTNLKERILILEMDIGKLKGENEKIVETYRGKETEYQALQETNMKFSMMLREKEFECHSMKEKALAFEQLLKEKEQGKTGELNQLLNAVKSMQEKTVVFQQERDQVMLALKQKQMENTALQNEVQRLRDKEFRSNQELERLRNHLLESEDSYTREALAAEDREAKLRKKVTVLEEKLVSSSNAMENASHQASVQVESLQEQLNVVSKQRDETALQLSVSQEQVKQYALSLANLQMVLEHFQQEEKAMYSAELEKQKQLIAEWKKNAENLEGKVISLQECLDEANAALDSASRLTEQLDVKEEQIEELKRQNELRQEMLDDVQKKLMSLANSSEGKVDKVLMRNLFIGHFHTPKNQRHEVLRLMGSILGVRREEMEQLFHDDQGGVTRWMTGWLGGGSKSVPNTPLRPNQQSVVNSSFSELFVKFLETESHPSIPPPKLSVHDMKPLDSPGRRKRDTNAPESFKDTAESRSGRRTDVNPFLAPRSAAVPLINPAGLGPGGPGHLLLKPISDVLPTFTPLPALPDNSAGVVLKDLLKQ
UniProt Q96F44: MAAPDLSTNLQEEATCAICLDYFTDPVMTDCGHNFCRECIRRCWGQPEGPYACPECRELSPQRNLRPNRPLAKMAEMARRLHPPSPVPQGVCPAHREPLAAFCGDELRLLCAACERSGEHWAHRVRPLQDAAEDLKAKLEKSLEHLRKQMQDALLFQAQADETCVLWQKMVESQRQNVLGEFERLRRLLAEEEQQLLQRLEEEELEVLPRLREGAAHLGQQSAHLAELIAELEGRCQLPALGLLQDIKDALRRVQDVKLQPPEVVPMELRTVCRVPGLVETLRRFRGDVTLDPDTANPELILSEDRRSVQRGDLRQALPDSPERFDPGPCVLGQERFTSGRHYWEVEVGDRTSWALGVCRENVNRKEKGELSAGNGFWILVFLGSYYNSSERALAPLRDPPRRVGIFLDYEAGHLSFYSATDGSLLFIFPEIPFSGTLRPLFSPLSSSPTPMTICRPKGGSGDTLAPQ
UniProt Q9UPN9: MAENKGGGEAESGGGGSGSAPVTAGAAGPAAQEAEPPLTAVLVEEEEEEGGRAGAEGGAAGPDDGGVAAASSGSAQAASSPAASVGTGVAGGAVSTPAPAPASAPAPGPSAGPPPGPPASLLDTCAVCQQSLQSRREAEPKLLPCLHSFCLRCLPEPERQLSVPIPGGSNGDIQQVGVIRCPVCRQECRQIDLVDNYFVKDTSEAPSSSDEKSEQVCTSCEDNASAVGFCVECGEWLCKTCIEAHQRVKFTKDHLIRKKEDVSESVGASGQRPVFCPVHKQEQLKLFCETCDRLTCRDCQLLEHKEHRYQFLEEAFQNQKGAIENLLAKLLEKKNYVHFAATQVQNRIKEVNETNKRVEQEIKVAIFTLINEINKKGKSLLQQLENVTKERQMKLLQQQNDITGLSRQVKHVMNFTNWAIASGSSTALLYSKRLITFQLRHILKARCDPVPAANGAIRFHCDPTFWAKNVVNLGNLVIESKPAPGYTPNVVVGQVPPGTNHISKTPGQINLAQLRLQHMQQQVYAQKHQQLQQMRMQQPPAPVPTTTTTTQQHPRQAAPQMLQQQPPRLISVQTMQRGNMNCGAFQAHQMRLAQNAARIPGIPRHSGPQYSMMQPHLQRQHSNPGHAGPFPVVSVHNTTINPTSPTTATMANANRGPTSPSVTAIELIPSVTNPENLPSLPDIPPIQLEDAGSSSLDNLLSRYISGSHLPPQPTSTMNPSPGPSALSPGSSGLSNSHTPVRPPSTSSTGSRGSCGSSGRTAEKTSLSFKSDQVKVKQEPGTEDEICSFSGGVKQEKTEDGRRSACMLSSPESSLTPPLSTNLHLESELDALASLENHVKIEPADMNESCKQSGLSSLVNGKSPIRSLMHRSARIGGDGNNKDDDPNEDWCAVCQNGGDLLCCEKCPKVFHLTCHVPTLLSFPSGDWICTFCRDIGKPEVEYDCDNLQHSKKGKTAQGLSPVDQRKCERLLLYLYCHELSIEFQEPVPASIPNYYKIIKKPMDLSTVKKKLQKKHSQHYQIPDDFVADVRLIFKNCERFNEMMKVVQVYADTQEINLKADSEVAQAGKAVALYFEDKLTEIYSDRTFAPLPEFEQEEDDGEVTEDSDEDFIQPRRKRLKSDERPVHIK
UniProt Q15654: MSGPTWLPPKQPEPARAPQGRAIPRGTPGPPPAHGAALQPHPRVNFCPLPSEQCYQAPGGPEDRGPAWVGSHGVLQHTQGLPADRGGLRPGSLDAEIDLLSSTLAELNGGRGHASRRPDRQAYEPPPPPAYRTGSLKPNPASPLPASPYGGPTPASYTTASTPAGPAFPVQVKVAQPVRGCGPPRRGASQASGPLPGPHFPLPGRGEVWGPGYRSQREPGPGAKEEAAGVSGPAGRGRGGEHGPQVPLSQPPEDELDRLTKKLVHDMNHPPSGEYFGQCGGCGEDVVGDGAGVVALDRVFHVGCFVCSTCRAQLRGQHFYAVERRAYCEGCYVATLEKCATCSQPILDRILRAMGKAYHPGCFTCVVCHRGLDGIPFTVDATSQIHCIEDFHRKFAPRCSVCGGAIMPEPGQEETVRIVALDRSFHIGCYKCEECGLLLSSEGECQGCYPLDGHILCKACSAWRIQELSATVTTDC

Columns and labels:
Experiment in all cases: log2 fold change, soluble protein after heating vs DMSO (PISA); higher = thermal stabilisation; K562 cells, 10 uM, 30 min; active = over 0.2 and 3.5 SD of the protein, either way, in both replicates (recomputed)
[1] = compound: CC1=C(C=C(C=C1)NC(=O)C2=CC(=CC=C2)C(C)(C)C#N)NC3=CC4=C(C=C3)N=CN(C4=O)C
How it was run: (§1)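 For each measurement, 10 μM compound was applied for 30 min to K562 cells at 2×10^6 cells/mL. Aliquots were heated for 3 min across 48°C-58°C, pooled, and extracted in PBS with 0.5% NP-40 at 4°C; the supernatant after 21,000xg for 90 min was soluble protein. This was quantified by TMTpro 16plex LC-MS/MS with channel sums equalised, and thermal stability was reported relative to control samples from duplicates, on a log2 fold-change scale.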

[2] = compound: CC1=C(C=C(C=C1)NC(=O)C2=CC(=CC=C2)N(C)C)NC(=O)C3=CC=C(C=C3)O
How it was run: as §1

[3] = compound: CC1=CC=C(C=C1)SC2=C3C=C(SC3=CN=C2)C(=O)N
How it was run: as §1

[4] = compound: CC1=NC(=CC=C1)C2=C(N=C(N2)C(C)(C)C)C3=CC4=NC=CN=C4C=C3
How it was run: as §1

Nexturastat A = compound: CCCCN(Cc1ccc(C(=O)NO)cc1)C(=O)Nc1ccccc1 [Nexturastat A]
How it was run: as §1

vemurafenib = compound: CCCS(=O)(=O)Nc1ccc(F)c(C(=O)c2c[nH]c3ncc(-c4ccc(Cl)cc4)cc23)c1F [vemurafenib]
How it was run: as §1

[5] = compound: CCCS(=O)(=O)Nc1ccc(F)c(C(=O)c2c[nH]c3ncc(Cl)cc23)c1F
How it was run: as §1

[6] = compound: CCCc1cc(C)[nH]c(=O)c1CNC(=O)c1cc(-c2ccnc(N3CCN(C)CC3)c2)cc2c1cnn2C(C)C
How it was run: as §1

givinostat = compound: CCN(CC)Cc1ccc2cc(COC(=O)Nc3ccc(C(=O)NO)cc3)ccc2c1 [givinostat]
How it was run: as §1

barasertib = compound: CCN(CCCOc1ccc2c(Nc3cc(CC(=O)Nc4cccc(F)c4)[nH]n3)ncnc2c1)CCOP(=O)(O)O [barasertib]
How it was run: as §1

[7] = compound: CC[C@@H]1C(=O)N(C)c2cnc(Nc3ccc(C(=O)NC4CCN(C)CC4)cc3OC)nc2N1C1CCCC1
How it was run: as §1

volasertib = compound: CC[C@@H]1C(=O)N(C)c2cnc(Nc3ccc(C(=O)N[C@H]4CC[C@H](N5CCN(CC6CC6)CC5)CC4)cc3OC)nc2N1C(C)C [volasertib]
How it was run: as §1

[8] = compound: CC[C@H](C)N1C=C(C2=C(C=C(C=C21)C3=CN=C(C=C3)N4CCNCC4)C(=O)NCC5=C(C=C(NC5=O)C)C)C
How it was run: as §1

epoxomicin = compound: CC[C@H](C)[C@@H](C(=O)N[C@@H]([C@@H](C)O)C(=O)N[C@@H](CC(C)C)C(=O)[C@]1(CO1)C)NC(=O)[C@H]([C@@H](C)CC)N(C)C(=O)C [epoxomicin]
How it was run: as §1

[9] = compound: CCn1c(C(=O)N(C2CC2)C2CC2)cc2c3c(ncn3C)c(Nc3cc(C)n(C)n3)nc21
How it was run: as §1

[10] = compound: CCn1cc(-c2ccnc3[nH]c(-c4cccc(CN(C)C)c4)cc23)c(-c2ccc(NC(=O)N(C)C)cc2)n1
How it was run: as §1

[11] = compound: CN(C)CC(=O)Nc1ccc2[nH]c(=O)c3ccccc3c2c1
How it was run: as §1

rosiglitazone = compound: CN(CCOC1=CC=C(C=C1)C[C@H]2C(=O)NC(=O)S2)C3=CC=CC=N3 (racemic) [rosiglitazone]
How it was run: as §1

[12] = compound: CN1C2=C(C3=C1C(=O)N(N=C3)CC4=CC(=CC=C4)N)SC(=C2)S(=O)C
How it was run: as §1

[13] = compound: CN1CCC(CNc2ccc3ncc(-c4cccc(OC(F)(F)F)c4)n3n2)CC1
How it was run: as §1

Measured: log2 fold change

TPM4 isoform 2 (UniProt P67936)
inactive: [1] 0.101 | [2] 0.033 | [3] 0.081 | [4] 0.04 | Nexturastat A -0.102 | vemurafenib 0.137 | [5] 0.213 | [6] -0.079 | givinostat -0.083 | barasertib 0.021 | [7] -0.044 | volasertib 0.021 | [8] -0.012 | epoxomicin 0.01 | [9] 0.005 | [10] 0.018 | [11] 0.021 | rosiglitazone 0.017 | [12] 0.04 | [13] -0.029

TRAF6 (UniProt Q9Y4K3)
inactive: [1] -0.048 | [2] -0.071 | [3] 0.073 | [4] -0.083 | Nexturastat A 0.127 | vemurafenib 0.017 | [5] 0.003 | [6] -0.005 | givinostat 0.013 | barasertib -0.002 | [7] -0.02 | volasertib -0.119 | [8] 0.007 | epoxomicin 0.08 | [9] 0.005 | [10] -0.138 | [11] -0.016 | rosiglitazone 0.037 | [12] 0.006 | [13] 0

TOP1 (UniProt P11387)
inactive: [1] 0.031 | [2] -0.083 | [3] -0.033 | [4] 0.061 | Nexturastat A 0.158 | vemurafenib -0.202 | [5] 0.092 | [6] 0.214 | givinostat 0.225 | barasertib -0.057 | [7] -0.03 | volasertib 0.022 | [8] 0.284 | epoxomicin -0.049 | [9] -0.124 | [10] 0.361 | [11] 0.046 | rosiglitazone -0.216 | [12] 0.277 | [13] 0.2

TRMT13 (UniProt Q9NUP7)
inactive: [1] 0 | [2] 0.007 | [3] -0.049 | [4] -0.004 | Nexturastat A -0.016 | vemurafenib 0.076 | [5] 0.002 | [6] -0.009 | givinostat -0.002 | barasertib -0.02 | [7] -0.056 | volasertib -0.144 | [8] -0.103 | epoxomicin 0.004 | [9] -0.058 | [10] -0.035 | [11] -0.05 | rosiglitazone 0 | [12] -0.031 | [13] -0.032

TOR1AIP1 isoform 3 (UniProt Q5JTV8)
inactive: [1] -0.012 | [2] -0.011 | [3] 0.016 | [4] 0.009 | Nexturastat A -0.006 | vemurafenib 0.011 | [5] -0.03 | [6] -0.003 | givinostat -0.03 | barasertib -0.036 | [7] -0.01 | volasertib 0.011 | [8] -0.008 | epoxomicin 0.004 | [9] 0 | [10] 0.007 | [11] -0.003 | rosiglitazone 0.017 | [12] -0.059 | [13] 0.07

TPST2 (UniProt O60704)
inactive: [1] -0.026 | [2] -0.025 | [3] -0.034 | [4] 0.07 | Nexturastat A -0.016 | vemurafenib -0.013 | [5] -0.015 | [6] -0.087 | givinostat 0.045 | barasertib 0.067 | [7] -0.084 | volasertib -0.254 | [8] -0.027 | epoxomicin 0.041 | [9] -0.022 | [10] 0.072 | [11] 0.005 | rosiglitazone 0.031 | [12] 0.008 | [13] -0.035

Retrieved one by one from the list above, two records:
TRAF6 (UniProt Q9Y4K3)
inactive: [1] -0.048 | [2] -0.071 | [3] 0.073 | [4] -0.083 | Nexturastat A 0.127 | vemurafenib 0.017 | [5] 0.003 | [6] -0.005 | givinostat 0.013 | barasertib -0.002 | [7] -0.02 | volasertib -0.119 | [8] 0.007 | epoxomicin 0.08 | [9] 0.005 | [10] -0.138 | [11] -0.016 | rosiglitazone 0.037 | [12] 0.006 | [13] 0

TPST2 (UniProt O60704)
inactive: [1] -0.026 | [2] -0.025 | [3] -0.034 | [4] 0.07 | Nexturastat A -0.016 | vemurafenib -0.013 | [5] -0.015 | [6] -0.087 | givinostat 0.045 | barasertib 0.067 | [7] -0.084 | volasertib -0.254 | [8] -0.027 | epoxomicin 0.041 | [9] -0.022 | [10] 0.072 | [11] 0.005 | rosiglitazone 0.031 | [12] 0.008 | [13] -0.035

The list goes on.

TSEN15 (UniProt Q8WW01)
inactive: [1] 0.08 | [2] -0.008 | [3] 0.018 | [4] 0.102 | Nexturastat A 0.069 | vemurafenib -0.06 | [5] 0.047 | [6] -0.033 | givinostat -0.025 | barasertib 0.03 | [7] 0.038 | volasertib 0.006 | [8] -0.034 | epoxomicin 0.009 | [9] -0.011 | [10] 0.013 | [11] 0.033 | rosiglitazone 0.04 | [12] -0.046 | [13] -0.053

TP53RK (UniProt Q96S44)
inactive: [1] 0.015 | [2] 0.008 | [3] 0.01 | [4] 0.038 | Nexturastat A -0.069 | vemurafenib 0.011 | [5] 0.009 | [6] -0.013 | givinostat -0.007 | barasertib -0.014 | [7] 0.01 | volasertib 0.056 | [8] 0.003 | epoxomicin 0.004 | [9] 0.045 | [10] 0.025 | [11] -0.023 | rosiglitazone 0.027 | [12] -0.035 | [13] -0.002

TOR1AIP2 (UniProt Q8NFQ8)
inactive: [1] 0.002 | [2] 0 | [3] -0.047 | [4] -0.028 | Nexturastat A -0.129 | vemurafenib -0.018 | [5] -0.027 | [6] -0.018 | givinostat -0.032 | barasertib -0.009 | [7] 0.03 | volasertib 0.028 | [8] 0.002 | epoxomicin 0.01 | [9] 0.06 | [10] 0.014 | [11] -0.023 | rosiglitazone -0.004 | [12] 0.009 | [13] 0.032

TRIP13 (UniProt Q15645)
inactive: [1] -0.026 | [2] 0.008 | [3] 0.049 | [4] 0.053 | Nexturastat A -0.078 | vemurafenib 0.029 | [5] 0.04 | [6] -0.028 | givinostat 0.018 | barasertib 0 | [7] -0.01 | volasertib -0.168 | [8] 0.036 | epoxomicin 0.017 | [9] 0.002 | [10] -0.067 | [11] 0.002 | rosiglitazone 0.046 | [12] -0.051 | [13] -0.211

TOLLIP (UniProt Q9H0E2)
inactive: [1] 0.033 | [2] 0.006 | [3] 0.007 | [4] 0.042 | Nexturastat A -0.054 | vemurafenib 0.116 | [5] 0.033 | [6] 0.016 | givinostat -0.062 | barasertib -0.01 | [7] 0.02 | volasertib -0.067 | [8] 0.056 | epoxomicin 0.018 | [9] 0.021 | [10] -0.071 | [11] 0.115 | rosiglitazone 0.01 | [12] -0.051 | [13] 0.007

TRIP11 (UniProt Q15643)
inactive: [1] 0.006 | [2] 0.038 | [3] 0.09 | [4] -0.025 | Nexturastat A -0.012 | vemurafenib 0.026 | [5] 0.072 | [6] 0.113 | givinostat 0.018 | barasertib 0.044 | [7] 0.052 | volasertib -0.094 | [8] -0.14 | epoxomicin -0.212 | [9] -0.081 | [10] -0.064 | [11] 0.068 | rosiglitazone -0.023 | [12] 0.276 | [13] -0.196

TRIM11 (UniProt Q96F44)
inactive: [1] -0.068 | [2] -0.04 | [3] 0.064 | [4] -0.052 | Nexturastat A -0.004 | vemurafenib 0.014 | [5] -0.01 | [6] -0.004 | givinostat 0.012 | barasertib 0.068 | [7] -0.051 | volasertib -0.074 | [8] 0.052 | epoxomicin 0.103 | [9] -0.017 | [10] 0.082 | [11] 0.093 | rosiglitazone 0.041 | [12] -0.03 | [13] -0.089

TRIM33 (UniProt Q9UPN9)
inactive: [1] -0.249 | [2] -0.041 | [3] 0.049 | [4] -0.029 | Nexturastat A 0.025 | vemurafenib 0.027 | [5] 0.03 | [6] 0.038 | givinostat 0.145 | barasertib 0.016 | [7] -0.127 | volasertib -0.292 | [8] -0.122 | epoxomicin 0.101 | [9] -0.148 | [10] -0.136 | [11] 0.162 | rosiglitazone 0.236 | [12] 0.033 | [13] -0.04

TRIP6 (UniProt Q15654)
inactive: [1] -0.006 | [2] -0.02 | [3] 0 | [4] 0.025 | Nexturastat A -0.054 | vemurafenib -0.001 | [5] 0.013 | [6] 0.018 | givinostat 0.006 | barasertib -0.009 | [7] -0.049 | volasertib -0.188 | [8] 0.018 | epoxomicin 0.028 | [9] -0.024 | [10] -0.015 | [11] -0.05 | rosiglitazone 0.027 | [12] -0.041 | [13] -0.027

TRMT112 (UniProt Q9UI30)
inactive: [1] 0.014 | [2] -0.063 | [3] 0.101 | [4] -0.025 | Nexturastat A -0.023 | vemurafenib 0.052 | [5] 0.072 | [6] 0.014 | givinostat -0.154 | barasertib 0.058 | [7] 0.005 | volasertib -0.022 | [8] -0.024 | epoxomicin 0.053 | [9] 0 | [10] -0.032 | [11] 0.067 | rosiglitazone 0.015 | [12] -0.041 | [13] 0.033
